Measured values: patent US20240316043A1, “BROMODOMAIN INHIBITORS FOR CANCER THERAPY” (University of Tennessee Research Foundation, priority 2023, published 2024)
At least one compound was matched to its structure with a doubt left.

Legend:
Type in all cases: cell-based
MT330 GBM cells = test: Cell death ELISA in MT330 GBM cells; settings: 200 mM of TMZ, 72 hrs, FIG. 1
Description: Control cells were treated with vehicle (DMSO). Cell death was determined at 72 hr after treatment by a cell death ELISA that quantifies histone-complexed DNA fragments. […]
Parental and BRG1 knockout MT330 cells were treated with bleomycin (0.01 μM) and bromodomain inhibitors […]. After 72 hr, cell death was determined by cell death ELISA.
The biological activity of bromodomain inhibitors was assessed for the ability to enhance TMZ-induced cell death. In brief, MT330 cells were treated with […] of bromodomain inhibitors alone, or in combination with […] of TMZ for 72 hrs, and GBM cell death was determined by a commercial ELISA.

T98G GBM cells = test: IncuCyte live cell imaging proliferation assay; settings: TMZ (500 μM) or bromodomain inhibitors (20 μM) alone, cellular confluence, FIG. 2
Description: T98G GBM cells were treated with TMZ (500 μM), the bromodomain inhibitors (20 μM), and cell proliferation was determined by Incucyte live cell assays using cellular confluence method. The data was normalized to the calculated cell confluence at day 0. Control cells were treated with vehicle (DMSO).
To further characterize the biological activity of selected bromodomain inhibitors, YH-IV-129, YH-IV-181 and YH-IV-191, IncuCyte live cell imaging proliferation assays were performed with the highly TMZ-resistant T98G GBM cell line.

LN229 GBM cells = test: γH2Ax immunostaining after TMZ; settings: TMZ (200 mM), 24 hrs, FIG. 11
Description: After treatment for 24 hrs, cells were fixed and immunostained for gH2Ax. Analysis of immunostaining was performed on a laser confocal microscope.
As TMZ is DNA damaging agent, we tested the ability of various bromodomain inhibitors to enhance TMZ-induced DNA damage as evidence by immunostaining of GBM cells with γH2Ax and examination of the staining on a confocal microscope. γH2AX is the phosphorylated version of the histone variant H2Ax and is a highly specific and sensitive marker for monitoring DNA damage initiation and resolution. […] Similar results were obtained with MT330 GBM cells.

In the case of `Cn1nnc2c(C(N)=O)ncn2c1=O` [TMZ, temozolomide, reference compound], the “cell death, TMZ alone” value (MT330 GBM cells) is reported as “induced low levels of MT330 cell death”, the “T98G cell proliferation, agent alone” value (T98G GBM cells) is reported as “no inhibitory effect on T98G cell proliferation” and the “γH2Ax staining, TMZ alone” value (LN229 GBM cells) is reported as “clear and detectable increase of γH2Ax staining”.
